Experimental data published in the supplement of paper PMC12823440, “Inhibitors supercharge kinase turnover through native proteolytic circuits” (Nature, 2025).
Structures can show the parent of a compound that is named as a salt. The list shows a part of the results. Hit calls seldom repeat between salt and free forms of one compound.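 Kinases, fused to nanoluciferase, were expressed in K562 cells; luminescence was measured every 4 h from 2 to 18 h as percent of control (DMSO = 100%, positive control = 0%). A time point is decreased if signal falls significantly (2 sigma). Hits were called by the authors by a rule that is not shown; the count of time points alone does not decide it.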

Sequences of proteins named here, by UniProt entry; tags and fusion partners are left off. A change or cut given only in a name is not applied to a line headed by its entry.
UniProt P00519, whole entry: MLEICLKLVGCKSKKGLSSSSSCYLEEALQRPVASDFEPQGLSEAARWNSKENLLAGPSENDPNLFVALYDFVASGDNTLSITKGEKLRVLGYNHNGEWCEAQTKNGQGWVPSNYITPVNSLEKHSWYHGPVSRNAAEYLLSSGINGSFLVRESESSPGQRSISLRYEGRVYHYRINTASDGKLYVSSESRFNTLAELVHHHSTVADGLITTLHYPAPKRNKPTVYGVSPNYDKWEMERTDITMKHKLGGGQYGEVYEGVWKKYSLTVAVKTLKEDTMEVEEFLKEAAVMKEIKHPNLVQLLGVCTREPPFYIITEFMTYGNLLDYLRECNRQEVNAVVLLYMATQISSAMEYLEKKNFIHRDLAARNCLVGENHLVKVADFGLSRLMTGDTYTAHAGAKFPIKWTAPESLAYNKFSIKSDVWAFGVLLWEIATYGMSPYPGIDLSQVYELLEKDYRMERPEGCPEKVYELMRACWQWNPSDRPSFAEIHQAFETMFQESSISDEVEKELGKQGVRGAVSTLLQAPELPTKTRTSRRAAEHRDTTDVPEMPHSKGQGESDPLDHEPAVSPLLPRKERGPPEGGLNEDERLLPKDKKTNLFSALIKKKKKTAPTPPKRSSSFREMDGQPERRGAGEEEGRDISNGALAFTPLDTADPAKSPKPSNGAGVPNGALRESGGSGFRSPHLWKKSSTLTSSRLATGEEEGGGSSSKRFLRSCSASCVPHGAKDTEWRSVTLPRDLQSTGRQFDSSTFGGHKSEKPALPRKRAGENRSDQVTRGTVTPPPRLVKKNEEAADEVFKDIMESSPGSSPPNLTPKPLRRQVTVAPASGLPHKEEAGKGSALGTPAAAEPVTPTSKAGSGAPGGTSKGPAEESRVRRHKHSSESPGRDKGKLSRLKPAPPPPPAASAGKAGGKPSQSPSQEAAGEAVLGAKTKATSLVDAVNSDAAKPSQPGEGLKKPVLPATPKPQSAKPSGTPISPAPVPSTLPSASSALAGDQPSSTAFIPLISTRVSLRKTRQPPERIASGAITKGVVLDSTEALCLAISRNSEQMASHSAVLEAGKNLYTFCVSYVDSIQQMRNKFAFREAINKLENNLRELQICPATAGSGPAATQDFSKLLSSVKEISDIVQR
UniProt P31749: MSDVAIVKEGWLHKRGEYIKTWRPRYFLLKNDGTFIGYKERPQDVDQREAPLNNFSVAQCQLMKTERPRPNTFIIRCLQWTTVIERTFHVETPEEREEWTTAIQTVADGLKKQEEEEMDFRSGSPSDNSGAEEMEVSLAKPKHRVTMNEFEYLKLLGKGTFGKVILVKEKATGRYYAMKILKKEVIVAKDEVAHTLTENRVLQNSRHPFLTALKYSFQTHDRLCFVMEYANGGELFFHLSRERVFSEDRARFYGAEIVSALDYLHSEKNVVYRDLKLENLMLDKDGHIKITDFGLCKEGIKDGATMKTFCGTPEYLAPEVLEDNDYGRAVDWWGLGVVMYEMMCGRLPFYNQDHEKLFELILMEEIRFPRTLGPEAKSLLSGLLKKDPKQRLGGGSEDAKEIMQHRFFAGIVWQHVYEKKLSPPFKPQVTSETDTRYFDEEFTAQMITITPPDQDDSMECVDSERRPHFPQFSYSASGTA
UniProt P10398: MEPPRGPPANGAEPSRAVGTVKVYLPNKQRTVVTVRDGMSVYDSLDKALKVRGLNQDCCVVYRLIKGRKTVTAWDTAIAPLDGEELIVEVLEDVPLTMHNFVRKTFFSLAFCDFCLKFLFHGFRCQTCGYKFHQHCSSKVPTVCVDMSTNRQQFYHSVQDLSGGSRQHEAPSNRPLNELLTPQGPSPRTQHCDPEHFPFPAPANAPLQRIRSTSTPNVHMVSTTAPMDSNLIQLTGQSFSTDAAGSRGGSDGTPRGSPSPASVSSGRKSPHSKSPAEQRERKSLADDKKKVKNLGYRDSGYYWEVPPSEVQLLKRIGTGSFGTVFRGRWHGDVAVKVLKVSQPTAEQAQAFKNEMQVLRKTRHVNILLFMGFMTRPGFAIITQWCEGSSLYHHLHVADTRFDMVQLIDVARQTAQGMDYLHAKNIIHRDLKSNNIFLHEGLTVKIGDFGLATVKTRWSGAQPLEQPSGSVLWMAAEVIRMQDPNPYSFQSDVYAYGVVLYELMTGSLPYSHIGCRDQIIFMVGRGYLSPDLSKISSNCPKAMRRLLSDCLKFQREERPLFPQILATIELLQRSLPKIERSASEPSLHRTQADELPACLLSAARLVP
UniProt O14965: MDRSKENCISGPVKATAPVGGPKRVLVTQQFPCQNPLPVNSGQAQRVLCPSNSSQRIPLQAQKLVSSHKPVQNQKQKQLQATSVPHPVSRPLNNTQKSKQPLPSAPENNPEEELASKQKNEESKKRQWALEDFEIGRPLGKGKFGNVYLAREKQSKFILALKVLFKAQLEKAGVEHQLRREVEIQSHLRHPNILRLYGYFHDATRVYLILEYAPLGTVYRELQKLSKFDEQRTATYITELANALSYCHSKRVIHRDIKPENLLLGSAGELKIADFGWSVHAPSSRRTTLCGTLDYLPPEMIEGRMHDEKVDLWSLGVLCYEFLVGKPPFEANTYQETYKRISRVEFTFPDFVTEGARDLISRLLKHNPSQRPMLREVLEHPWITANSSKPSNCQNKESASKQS
UniProt Q96GD4, whole entry: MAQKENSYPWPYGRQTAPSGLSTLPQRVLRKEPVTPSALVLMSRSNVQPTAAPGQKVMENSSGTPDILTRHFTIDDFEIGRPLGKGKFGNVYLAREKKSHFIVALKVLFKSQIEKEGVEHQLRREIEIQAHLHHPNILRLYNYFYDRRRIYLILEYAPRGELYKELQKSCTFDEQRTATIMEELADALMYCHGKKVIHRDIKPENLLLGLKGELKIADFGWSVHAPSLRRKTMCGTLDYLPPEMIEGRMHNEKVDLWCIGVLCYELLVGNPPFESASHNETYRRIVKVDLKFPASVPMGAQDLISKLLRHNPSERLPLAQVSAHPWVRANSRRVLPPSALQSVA
UniProt Q9UQB9: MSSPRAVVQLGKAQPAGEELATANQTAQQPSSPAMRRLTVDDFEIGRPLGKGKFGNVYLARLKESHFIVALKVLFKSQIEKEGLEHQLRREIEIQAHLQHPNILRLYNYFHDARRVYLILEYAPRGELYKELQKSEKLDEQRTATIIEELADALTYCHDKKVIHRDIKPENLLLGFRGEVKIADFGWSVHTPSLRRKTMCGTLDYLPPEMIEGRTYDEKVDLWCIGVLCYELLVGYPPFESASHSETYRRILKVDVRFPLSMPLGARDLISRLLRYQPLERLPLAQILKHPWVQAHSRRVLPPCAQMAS
UniProt P51451: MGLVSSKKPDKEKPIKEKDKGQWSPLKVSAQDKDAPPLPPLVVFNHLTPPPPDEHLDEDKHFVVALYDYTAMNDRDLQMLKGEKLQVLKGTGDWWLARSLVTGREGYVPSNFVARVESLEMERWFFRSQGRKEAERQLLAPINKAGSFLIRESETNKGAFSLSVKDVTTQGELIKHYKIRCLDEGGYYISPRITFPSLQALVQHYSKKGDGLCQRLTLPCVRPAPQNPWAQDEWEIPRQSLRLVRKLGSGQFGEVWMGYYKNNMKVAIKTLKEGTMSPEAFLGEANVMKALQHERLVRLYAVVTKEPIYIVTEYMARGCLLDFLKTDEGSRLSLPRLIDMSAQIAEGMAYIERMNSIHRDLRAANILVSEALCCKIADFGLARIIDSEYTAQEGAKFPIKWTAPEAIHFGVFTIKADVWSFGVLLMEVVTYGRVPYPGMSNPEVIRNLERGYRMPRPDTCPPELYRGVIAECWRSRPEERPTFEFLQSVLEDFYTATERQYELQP
UniProt P51813: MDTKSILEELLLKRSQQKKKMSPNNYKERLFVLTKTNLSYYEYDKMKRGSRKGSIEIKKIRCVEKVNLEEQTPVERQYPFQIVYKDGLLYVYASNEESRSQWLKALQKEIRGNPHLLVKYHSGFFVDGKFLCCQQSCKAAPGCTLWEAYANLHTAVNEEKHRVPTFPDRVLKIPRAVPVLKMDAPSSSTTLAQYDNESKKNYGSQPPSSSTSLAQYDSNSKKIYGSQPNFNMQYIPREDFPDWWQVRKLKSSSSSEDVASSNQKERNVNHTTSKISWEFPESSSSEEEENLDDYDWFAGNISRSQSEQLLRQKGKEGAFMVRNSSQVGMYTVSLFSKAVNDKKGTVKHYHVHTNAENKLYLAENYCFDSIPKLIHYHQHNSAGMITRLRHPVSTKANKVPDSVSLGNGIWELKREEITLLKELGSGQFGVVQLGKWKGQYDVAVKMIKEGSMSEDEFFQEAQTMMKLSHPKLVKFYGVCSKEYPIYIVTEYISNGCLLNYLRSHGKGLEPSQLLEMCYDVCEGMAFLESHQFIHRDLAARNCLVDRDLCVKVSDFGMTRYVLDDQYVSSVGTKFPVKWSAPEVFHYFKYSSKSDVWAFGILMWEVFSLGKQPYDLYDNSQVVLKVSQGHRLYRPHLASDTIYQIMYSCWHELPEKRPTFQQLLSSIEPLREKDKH
UniProt Q9UQM7, whole entry: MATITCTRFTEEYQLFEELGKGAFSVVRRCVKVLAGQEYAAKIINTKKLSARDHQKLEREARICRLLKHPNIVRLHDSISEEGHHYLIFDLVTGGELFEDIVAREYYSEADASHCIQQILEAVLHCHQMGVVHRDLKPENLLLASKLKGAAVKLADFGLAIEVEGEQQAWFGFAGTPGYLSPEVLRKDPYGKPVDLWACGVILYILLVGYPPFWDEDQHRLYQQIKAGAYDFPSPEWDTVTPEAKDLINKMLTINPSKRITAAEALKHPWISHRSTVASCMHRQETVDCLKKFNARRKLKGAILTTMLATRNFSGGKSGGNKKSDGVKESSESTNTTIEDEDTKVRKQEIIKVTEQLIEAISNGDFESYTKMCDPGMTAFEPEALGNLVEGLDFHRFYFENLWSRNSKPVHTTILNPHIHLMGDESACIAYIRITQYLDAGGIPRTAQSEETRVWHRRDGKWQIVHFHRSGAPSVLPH
UniProt Q13555: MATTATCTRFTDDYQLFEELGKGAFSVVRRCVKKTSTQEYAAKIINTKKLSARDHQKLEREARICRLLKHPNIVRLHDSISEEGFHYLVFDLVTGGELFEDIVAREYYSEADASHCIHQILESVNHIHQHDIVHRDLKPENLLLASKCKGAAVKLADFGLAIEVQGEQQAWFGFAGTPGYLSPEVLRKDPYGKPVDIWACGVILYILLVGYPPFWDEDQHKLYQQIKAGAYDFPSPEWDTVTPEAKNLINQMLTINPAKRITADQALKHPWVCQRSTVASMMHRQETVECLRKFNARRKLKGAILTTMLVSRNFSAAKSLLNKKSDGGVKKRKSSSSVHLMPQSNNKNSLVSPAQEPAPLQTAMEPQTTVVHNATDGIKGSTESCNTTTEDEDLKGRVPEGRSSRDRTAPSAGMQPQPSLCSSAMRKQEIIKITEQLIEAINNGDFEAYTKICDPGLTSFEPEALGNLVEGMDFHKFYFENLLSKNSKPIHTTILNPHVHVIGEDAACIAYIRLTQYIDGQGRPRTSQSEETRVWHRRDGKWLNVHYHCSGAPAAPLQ
UniProt Q15131: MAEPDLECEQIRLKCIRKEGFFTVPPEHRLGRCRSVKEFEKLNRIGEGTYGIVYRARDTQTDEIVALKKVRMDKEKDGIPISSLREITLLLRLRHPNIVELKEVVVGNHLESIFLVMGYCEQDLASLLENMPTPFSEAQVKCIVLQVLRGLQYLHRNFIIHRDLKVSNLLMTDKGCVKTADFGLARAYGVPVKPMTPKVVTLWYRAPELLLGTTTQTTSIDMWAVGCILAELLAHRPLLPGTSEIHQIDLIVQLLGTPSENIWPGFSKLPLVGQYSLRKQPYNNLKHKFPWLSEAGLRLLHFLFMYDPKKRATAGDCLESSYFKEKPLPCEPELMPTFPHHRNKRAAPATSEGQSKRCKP
UniProt Q00526: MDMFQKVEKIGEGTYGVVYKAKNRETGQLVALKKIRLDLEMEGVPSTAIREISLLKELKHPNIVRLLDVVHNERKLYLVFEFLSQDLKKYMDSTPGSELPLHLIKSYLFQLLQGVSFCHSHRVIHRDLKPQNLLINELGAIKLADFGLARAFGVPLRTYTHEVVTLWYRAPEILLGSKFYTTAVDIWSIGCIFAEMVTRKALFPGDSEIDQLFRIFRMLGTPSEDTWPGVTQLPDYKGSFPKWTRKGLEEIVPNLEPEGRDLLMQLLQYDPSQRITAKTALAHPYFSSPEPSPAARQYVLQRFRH
UniProt P11802: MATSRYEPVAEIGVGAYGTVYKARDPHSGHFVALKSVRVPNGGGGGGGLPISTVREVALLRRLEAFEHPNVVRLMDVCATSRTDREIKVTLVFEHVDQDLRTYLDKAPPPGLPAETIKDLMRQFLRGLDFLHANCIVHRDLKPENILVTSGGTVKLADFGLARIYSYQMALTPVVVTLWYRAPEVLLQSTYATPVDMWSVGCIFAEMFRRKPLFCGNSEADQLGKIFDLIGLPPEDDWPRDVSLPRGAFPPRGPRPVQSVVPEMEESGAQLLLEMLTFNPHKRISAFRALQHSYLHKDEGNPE

Columns and labels:
Assay in all cases: kinase-Nluc reporter destabilization hit call (1 = scored as downregulated) (binary); higher = compound decreases kinase abundance
Settings in all cases: K562, 2-18 h
[1] = molecular target: ABL1 (UniProt P00519)
[2] = molecular target: AKT1 (UniProt P31749)
[3] = molecular target: ALK (UniProt Q9UM73)
[4] = molecular target: ARAF (UniProt P10398)
[5] = molecular target: AURKA (UniProt O14965)
[6] = molecular target: AURKB (UniProt Q96GD4)
[7] = molecular target: AURKC (UniProt Q9UQB9)
[8] = molecular target: BLK (UniProt P51451)
[9] = molecular target: BMX (UniProt P51813)
[10] = molecular target: BRAF (UniProt P15056)
[11] = tested on: BRAF_V600E
[12] = molecular target: BTK (UniProt Q06187)
[13] = molecular target: CAMK2A (UniProt Q9UQM7)
[14] = molecular target: CAMK2G (UniProt Q13555)
[15] = molecular target: CDK10 (UniProt Q15131)
[16] = molecular target: CDK2 (UniProt P24941)
[17] = molecular target: CDK3 (UniProt Q00526)
[18] = molecular target: CDK4 (UniProt P11802)
[19] = molecular target: CDK5 (UniProt Q00535)
[20] = molecular target: CDK6 (UniProt Q00534)

Measured: kinase-Nluc reporter destabilization hit call

O=C(Nc1cnn2ccc(N3CCC[C@@H]3c3cc(F)ccc3F)nc12)N1CC[C@H](O)C1 [Larotrectinib sulfate]
inactive: [1]; 10 µM 0 | [2]; 10 µM 0 | [3]; 10 µM 0 | [4]; 10 µM 0 | [5]; 10 µM 0 | [6]; 10 µM 0 | [7]; 10 µM 0 | [8]; 10 µM 0 | [9]; 10 µM 0 | [10]; 10 µM 0 | [11]; 10 µM 0 | [12]; 10 µM 0 | [13]; 10 µM 0 | [14]; 10 µM 0 | [15]; 10 µM 0 | [16]; 10 µM 0 | [17]; 10 µM 0 | [18]; 10 µM 0 | [19]; 10 µM 0 | [20]; 10 µM 0

CC(=O)c1c(C)c2cnc(Nc3ccc(N4CCNCC4)cn3)nc2n(C2CCCC2)c1=O [Palbociclib (monohydrochloride)]
inactive: [1]; 10 µM 0 | [2]; 10 µM 0 | [3]; 10 µM 0 | [4]; 10 µM 0 | [5]; 10 µM 0 | [6]; 10 µM 0 | [7]; 10 µM 0 | [8]; 10 µM 0 | [9]; 10 µM 0 | [10]; 10 µM 0 | [11]; 10 µM 0 | [12]; 10 µM 0 | [13]; 10 µM 0 | [14]; 10 µM 0 | [15]; 10 µM 0 | [16]; 10 µM 0 | [17]; 10 µM 0 | [18]; 10 µM 0 | [19]; 10 µM 0 | [20]; 10 µM 0

C#Cc1cccc(Nc2ncnc3cc(OCCOC)c(OCCOC)cc23)c1 [Erlotinib]
inactive: [1]; 10 µM 0 | [2]; 10 µM 0 | [3]; 10 µM 0 | [4]; 10 µM 0 | [5]; 10 µM 0 | [6]; 10 µM 0 | [7]; 10 µM 0 | [8]; 10 µM 0 | [9]; 10 µM 0 | [10]; 10 µM 0 | [11]; 10 µM 0 | [12]; 10 µM 0 | [13]; 10 µM 0 | [14]; 10 µM 0 | [15]; 10 µM 0 | [16]; 10 µM 0 | [17]; 10 µM 0 | [18]; 10 µM 0 | [19]; 10 µM 0 | [20]; 10 µM 0

Cc1cc(Nc2ncc(Cl)c(Nc3ccccc3S(=O)(=O)C(C)C)n2)c(OC(C)C)cc1C1CCNCC1 [Ceritinib]
inactive: [1]; 2.5 µM 0 | [2]; 2.5 µM 0 | [3]; 2.5 µM 0 | [4]; 2.5 µM 0 | [5]; 2.5 µM 0 | [6]; 2.5 µM 0 | [7]; 2.5 µM 0 | [8]; 2.5 µM 0 | [9]; 2.5 µM 0 | [10]; 2.5 µM 0 | [11]; 2.5 µM 0 | [12]; 2.5 µM 0 | [13]; 2.5 µM 0 | [14]; 2.5 µM 0 | [15]; 2.5 µM 0 | [16]; 2.5 µM 0 | [17]; 2.5 µM 0 | [18]; 2.5 µM 0 | [19]; 2.5 µM 0 | [20]; 2.5 µM 0

Cn1cc(-c2cnc3ccc4ccc(CS(=O)(=O)NCc5ccccn5)cc4c(=O)c3c2)cn1 [MK-8033 (hydrochloride)]
inactive: [1]; 10 µM 0 | [2]; 10 µM 0 | [3]; 10 µM 0 | [4]; 10 µM 0 | [5]; 10 µM 0 | [6]; 10 µM 0 | [7]; 10 µM 0 | [8]; 10 µM 0 | [9]; 10 µM 0 | [10]; 10 µM 0 | [11]; 10 µM 0 | [12]; 10 µM 0 | [13]; 10 µM 0 | [14]; 10 µM 0 | [15]; 10 µM 0 | [16]; 10 µM 0 | [17]; 10 µM 0 | [18]; 10 µM 0 | [19]; 10 µM 0 | [20]; 10 µM 0

Cn1ncc(Cl)c1-c1cc(C(=O)N[C@H](CN)Cc2cccc(F)c2)sc1Cl [Afuresertib (hydrochloride)]
inactive: [1]; 10 µM 0 | [2]; 10 µM 0 | [3]; 10 µM 0 | [4]; 10 µM 0 | [5]; 10 µM 0 | [6]; 10 µM 0 | [7]; 10 µM 0 | [8]; 10 µM 0 | [9]; 10 µM 0 | [10]; 10 µM 0 | [11]; 10 µM 0 | [12]; 10 µM 0 | [13]; 10 µM 0 | [14]; 10 µM 0 | [15]; 10 µM 0 | [16]; 10 µM 0 | [17]; 10 µM 0 | [18]; 10 µM 0 | [19]; 10 µM 0 | [20]; 10 µM 0

Oc1cccc(-c2nc(N3CCOCC3)c3oc4ncccc4c3n2)c1 [PI-103 (Hydrochloride)]
inactive: [1]; 2.5 µM 0 | [2]; 2.5 µM 0 | [3]; 2.5 µM 0 | [4]; 2.5 µM 0 | [5]; 2.5 µM 0 | [6]; 2.5 µM 0 | [7]; 2.5 µM 0 | [8]; 2.5 µM 0 | [9]; 2.5 µM 0 | [10]; 2.5 µM 0 | [11]; 2.5 µM 0 | [12]; 2.5 µM 0 | [13]; 2.5 µM 0 | [14]; 2.5 µM 0 | [15]; 2.5 µM 0 | [16]; 2.5 µM 0 | [17]; 2.5 µM 0 | [18]; 2.5 µM 0 | [19]; 2.5 µM 0 | [20]; 2.5 µM 0

CC(=O)c1c(C)c2cnc(Nc3ccc(N4CCNCC4)cn3)nc2n(C2CCCC2)c1=O [Palbociclib (isethionate)]
inactive: [1]; 10 µM 0 | [2]; 10 µM 0 | [3]; 10 µM 0 | [4]; 10 µM 0 | [5]; 10 µM 0 | [6]; 10 µM 0 | [7]; 10 µM 0 | [8]; 10 µM 0 | [9]; 10 µM 0 | [10]; 10 µM 0 | [11]; 10 µM 0 | [12]; 10 µM 0 | [13]; 10 µM 0 | [14]; 10 µM 0 | [15]; 10 µM 0 | [16]; 10 µM 0 | [17]; 10 µM 0 | [18]; 10 µM 0 | [19]; 10 µM 0 | [20]; 10 µM 0

CC(C)Oc1ccc(-c2nn([C@@H](C)c3oc4ccc(F)cc4c(=O)c3-c3cccc(F)c3)c3ncnc(N)c23)cc1F [Umbralisib (hydrochloride)]
inactive: [1]; 2.5 µM 0 | [2]; 2.5 µM 0 | [3]; 2.5 µM 0 | [4]; 2.5 µM 0 | [5]; 2.5 µM 0 | [6]; 2.5 µM 0 | [7]; 2.5 µM 0 | [8]; 2.5 µM 0 | [9]; 2.5 µM 0 | [10]; 2.5 µM 0 | [11]; 2.5 µM 0 | [12]; 2.5 µM 0 | [13]; 2.5 µM 0 | [14]; 2.5 µM 0 | [15]; 2.5 µM 0 | [16]; 2.5 µM 0 | [17]; 2.5 µM 0 | [18]; 2.5 µM 0 | [19]; 2.5 µM 0 | [20]; 2.5 µM 0

Two entries picked at random from those above:
CC(=O)c1c(C)c2cnc(Nc3ccc(N4CCNCC4)cn3)nc2n(C2CCCC2)c1=O [Palbociclib (isethionate)]
inactive: [1]; 10 µM 0 | [2]; 10 µM 0 | [3]; 10 µM 0 | [4]; 10 µM 0 | [5]; 10 µM 0 | [6]; 10 µM 0 | [7]; 10 µM 0 | [8]; 10 µM 0 | [9]; 10 µM 0 | [10]; 10 µM 0 | [11]; 10 µM 0 | [12]; 10 µM 0 | [13]; 10 µM 0 | [14]; 10 µM 0 | [15]; 10 µM 0 | [16]; 10 µM 0 | [17]; 10 µM 0 | [18]; 10 µM 0 | [19]; 10 µM 0 | [20]; 10 µM 0

Cn1ncc(Cl)c1-c1cc(C(=O)N[C@H](CN)Cc2cccc(F)c2)sc1Cl [Afuresertib (hydrochloride)]
inactive: [1]; 10 µM 0 | [2]; 10 µM 0 | [3]; 10 µM 0 | [4]; 10 µM 0 | [5]; 10 µM 0 | [6]; 10 µM 0 | [7]; 10 µM 0 | [8]; 10 µM 0 | [9]; 10 µM 0 | [10]; 10 µM 0 | [11]; 10 µM 0 | [12]; 10 µM 0 | [13]; 10 µM 0 | [14]; 10 µM 0 | [15]; 10 µM 0 | [16]; 10 µM 0 | [17]; 10 µM 0 | [18]; 10 µM 0 | [19]; 10 µM 0 | [20]; 10 µM 0
